Values from PubChem BioAssay AID686938 (Drosophila RNAi Screening Center, 2013).

Screen: 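Fly genes required for calcium entry once internal stores are emptied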 (primary screen)
System: Drosophila S2R+ cells
Reagents: long dsRNA against Drosophila genes, about 0.25 µg dsRNA per well, roughly 10,000 cells
Duration: 5 days of knock-down before the calcium assay
Conditions: thapsigargin (SERCA pump blocker) to empty calcium stores; entry signal taken 4 min after adding it
Detection: 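Duplicate raw fluo-4 intensities per well from a plate reader, at rest and four minutes after thapsigargin emptied calcium stores; entry-to-rest ratio filled for only some wells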
Reading the numbers: calcium entry signal: higher = stronger calcium signal after store depletion; resting calcium signal: higher = higher resting calcium signal
Active means: 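Called when the plate z-score of the entry-to-rest ratio, mean of duplicates, falls below −3; wells with low overall dye signal (Fmax z below −2) or more than five off-targets excluded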
Meaning of the calls: active = strongly reduced calcium entry; inactive = no strong reduction
The screen tested about 23,000 reagents; below is an unselected part of those that have a named target and a result. Of all reagents, 75 (0.33%) got an active call. 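Raw plate signals without normalisation; calls rest on plate z-scores that were not deposited; ratio present for only 364 wells.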 Unmarked entries are inactive. Names joined by + are all predicted targets of the reagent. Not stated in the record: the dose of the treatment.

What is on record for Plzf (Promyelocytic leukemia zinc finger) [DRSC02994]?
calcium entry signal, replicate 1 (fluorescence units): 4.31e7; resting calcium signal, replicate 1 (fluorescence units): 2.13e7

For mRpL43 (mitochondrial ribosomal protein L43) [DRSC04508], what was measured?
calcium entry signal, replicate 1 (fluorescence units): 4.21e7; calcium entry signal, replicate 2 (fluorescence units): 7.68e7; resting calcium signal, replicate 1 (fluorescence units): 2.07e7; resting calcium signal, replicate 2 (fluorescence units): 2.66e7

With mRpL43 (mitochondrial ribosomal protein L43) [DRSC22571], what does the deposit list?
calcium entry signal, replicate 1 (fluorescence units): 4.95e7; calcium entry signal, replicate 2 (fluorescence units): 4.29e7; resting calcium signal, replicate 1 (fluorescence units): 2.51e7; resting calcium signal, replicate 2 (fluorescence units): 1.53e7

With Rheb (Ras homolog enriched in brain) [DRSC12148], what was measured?
calcium entry signal, replicate 1 (fluorescence units): 3.32e7; calcium entry signal, replicate 2 (fluorescence units): 3.01e7; resting calcium signal, replicate 1 (fluorescence units): 1.96e7; resting calcium signal, replicate 2 (fluorescence units): 1.79e7

For Ir67c (Ionotropic receptor 67c) [DRSC22097], what does the deposit list?
calcium entry signal, replicate 1 (fluorescence units): 4.04e7; calcium entry signal, replicate 2 (fluorescence units): 3.65e7; resting calcium signal, replicate 1 (fluorescence units): 2.40e7; resting calcium signal, replicate 2 (fluorescence units): 1.73e7

With Ziz (Zizimin) [DRSC02506], how do the results read?
calcium entry signal, replicate 1 (fluorescence units): 3.98e7; calcium entry signal, replicate 2 (fluorescence units): 4.13e7; resting calcium signal, replicate 1 (fluorescence units): 1.91e7; resting calcium signal, replicate 2 (fluorescence units): 1.83e7

How did the screen score Ziz (Zizimin) [DRSC02976]?
calcium entry signal, replicate 1 (fluorescence units): 3.77e7; calcium entry signal, replicate 2 (fluorescence units): 3.41e7; resting calcium signal, replicate 1 (fluorescence units): 1.83e7; resting calcium signal, replicate 2 (fluorescence units): 1.57e7

With ACC (Acetyl-CoA carboxylase) [DRSC06059], how do the results read?
calcium entry signal, replicate 1 (fluorescence units): 2.14e7; calcium entry signal, replicate 2 (fluorescence units): 2.81e7; resting calcium signal, replicate 1 (fluorescence units): 1.13e7; resting calcium signal, replicate 2 (fluorescence units): 1.19e7

With ACC (Acetyl-CoA carboxylase) [DRSC07249], what was measured?
calcium entry signal, replicate 1 (fluorescence units): 1.80e7; calcium entry signal, replicate 2 (fluorescence units): 2.63e7; resting calcium signal, replicate 1 (fluorescence units): 1.30e7; resting calcium signal, replicate 2 (fluorescence units): 1.50e7

3 of these entries in another layout.
{"gene knocked down": "Ziz (Zizimin)", "amplicon": "DRSC02976", "calcium entry signal, replicate 1 (fluorescence units)": 3.77e7, "calcium entry signal, replicate 2 (fluorescence units)": 3.41e7, "resting calcium signal, replicate 1 (fluorescence units)": 1.83e7, "resting calcium signal, replicate 2 (fluorescence units)": 1.57e7}
{"gene knocked down": "ACC (Acetyl-CoA carboxylase)", "amplicon": "DRSC06059", "calcium entry signal, replicate 1 (fluorescence units)": 2.14e7, "calcium entry signal, replicate 2 (fluorescence units)": 2.81e7, "resting calcium signal, replicate 1 (fluorescence units)": 1.13e7, "resting calcium signal, replicate 2 (fluorescence units)": 1.19e7}
{"gene knocked down": "ACC (Acetyl-CoA carboxylase)", "amplicon": "DRSC07249", "calcium entry signal, replicate 1 (fluorescence units)": 1.80e7, "calcium entry signal, replicate 2 (fluorescence units)": 2.63e7, "resting calcium signal, replicate 1 (fluorescence units)": 1.30e7, "resting calcium signal, replicate 2 (fluorescence units)": 1.50e7}

The listing continues:
How did the screen score Phlpp (PH domain leucine-rich repeat protein phosphatase) [DRSC02065]?
calcium entry signal, replicate 1 (fluorescence units): 4.06e7; calcium entry signal, replicate 2 (fluorescence units): 4.42e7; resting calcium signal, replicate 1 (fluorescence units): 2.09e7; resting calcium signal, replicate 2 (fluorescence units): 1.94e7

What is on record for Phlpp (PH domain leucine-rich repeat protein phosphatase) [DRSC22808]?
calcium entry signal, replicate 1 (fluorescence units): 3.55e7; calcium entry signal, replicate 2 (fluorescence units): 3.72e7; resting calcium signal, replicate 1 (fluorescence units): 1.80e7; resting calcium signal, replicate 2 (fluorescence units): 1.87e7

What is on record for sdk (sidekick) [DRSC18831]?
calcium entry signal, replicate 1 (fluorescence units): 3.93e7; calcium entry signal, replicate 2 (fluorescence units): 5.05e7; resting calcium signal, replicate 1 (fluorescence units): 1.81e7; resting calcium signal, replicate 2 (fluorescence units): 2.22e7

For Gel (Gelsolin) [DRSC12350], what was measured?
calcium entry signal, replicate 1 (fluorescence units): 4.13e7; calcium entry signal, replicate 2 (fluorescence units): 5.08e7; resting calcium signal, replicate 1 (fluorescence units): 1.92e7; resting calcium signal, replicate 2 (fluorescence units): 3.50e7

For CG5618 [DRSC11780], what was measured?
calcium entry signal, replicate 1 (fluorescence units): 4.21e7; calcium entry signal, replicate 2 (fluorescence units): 4.71e7; resting calcium signal, replicate 1 (fluorescence units): 1.81e7; resting calcium signal, replicate 2 (fluorescence units): 2.74e7

What did the screen give for CG33144 [DRSC06132]?
calcium entry signal, replicate 1 (fluorescence units): 6.27e7; calcium entry signal, replicate 2 (fluorescence units): 4.71e7; resting calcium signal, replicate 1 (fluorescence units): 2.57e7; resting calcium signal, replicate 2 (fluorescence units): 2.02e7

For CG33144 [DRSC07024], what does the deposit list?
calcium entry signal, replicate 1 (fluorescence units): 3.86e7; calcium entry signal, replicate 2 (fluorescence units): 3.92e7; resting calcium signal, replicate 1 (fluorescence units): 1.74e7; resting calcium signal, replicate 2 (fluorescence units): 1.61e7

With CG4896 [DRSC00671], what does the deposit list?
calcium entry signal, replicate 1 (fluorescence units): 4.49e7; resting calcium signal, replicate 1 (fluorescence units): 2.51e7

How did the screen score Coq4 + frc [DRSC10381]?
calcium entry signal, replicate 1 (fluorescence units): 6.68e7; calcium entry signal, replicate 2 (fluorescence units): 7.73e7; resting calcium signal, replicate 1 (fluorescence units): 2.81e7; resting calcium signal, replicate 2 (fluorescence units): 3.18e7

How did the screen score Coq4 + frc [DRSC10382]?
calcium entry signal, replicate 1 (fluorescence units): 3.78e7; calcium entry signal, replicate 2 (fluorescence units): 3.80e7; resting calcium signal, replicate 1 (fluorescence units): 1.57e7; resting calcium signal, replicate 2 (fluorescence units): 1.54e7

Which result is listed for Spt20 [DRSC10280]?
calcium entry signal, replicate 1 (fluorescence units): 2.23e7; calcium entry signal, replicate 2 (fluorescence units): 3.05e7; resting calcium signal, replicate 1 (fluorescence units): 1.46e7; resting calcium signal, replicate 2 (fluorescence units): 1.83e7

With Spt20 [DRSC22993], how do the results read?
calcium entry signal, replicate 1 (fluorescence units): 7.24e7; calcium entry signal, replicate 2 (fluorescence units): 2.64e7; resting calcium signal, replicate 1 (fluorescence units): 3.01e7; resting calcium signal, replicate 2 (fluorescence units): 1.20e7

Which result is listed for CG7328 [DRSC10812]?
calcium entry signal, replicate 1 (fluorescence units): 3.04e7; calcium entry signal, replicate 2 (fluorescence units): 4.83e7; resting calcium signal, replicate 1 (fluorescence units): 1.56e7; resting calcium signal, replicate 2 (fluorescence units): 2.00e7

For CG12998 [DRSC19518], what was measured?
calcium entry signal, replicate 1 (fluorescence units): 3.75e7; calcium entry signal, replicate 2 (fluorescence units): 3.06e7; resting calcium signal, replicate 1 (fluorescence units): 1.87e7; resting calcium signal, replicate 2 (fluorescence units): 1.39e7

With Sqor (Sulfide quinone oxidoreductase) [DRSC08453], how do the results read?
calcium entry signal, replicate 1 (fluorescence units): 4.20e7; calcium entry signal, replicate 2 (fluorescence units): 3.24e7; resting calcium signal, replicate 1 (fluorescence units): 2.81e7; resting calcium signal, replicate 2 (fluorescence units): 1.41e7

How did the screen score w-cup (world cup) [DRSC03048]?
calcium entry signal, replicate 1 (fluorescence units): 4.49e7; calcium entry signal, replicate 2 (fluorescence units): 5.51e7; resting calcium signal, replicate 1 (fluorescence units): 2.33e7; resting calcium signal, replicate 2 (fluorescence units): 2.32e7

With Flo2 (Flotillin 2) [DRSC19062], what does the deposit list?
calcium entry signal, replicate 1 (fluorescence units): 3.46e7; calcium entry signal, replicate 2 (fluorescence units): 3.88e7; resting calcium signal, replicate 1 (fluorescence units): 1.65e7; resting calcium signal, replicate 2 (fluorescence units): 1.67e7

How did the screen score Flo2 (Flotillin 2) [DRSC20244]?
calcium entry signal, replicate 1 (fluorescence units): 4.59e7; calcium entry signal, replicate 2 (fluorescence units): 2.99e7; resting calcium signal, replicate 1 (fluorescence units): 2.10e7; resting calcium signal, replicate 2 (fluorescence units): 1.37e7
